± gives the standard deviation. Only a part is listed here, and it is no random draw. Many entries were measured with a wide error.
Legend:
[1] = tested on: MILI (PIWIL2) piRISC loaded with L1MC piRNA (26 nt); assay: pre-steady-state target cleavage rate (min^-1); MIWI and MILI are mouse PIWI proteins and EfPiwi is from a freshwater sponge; tags in brackets are library labels; higher = faster piRNA-guided slicing of the target; settings: guide: L1MC piRNA 5'p-UAACUAAAUACUAUGCAAGCUGUAGG
Procedure, shortened: (§1)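 Active affinity-purified piRISC carrying one synthetic guide (1 nM) was mixed with a transcribed, DNA-blocked target RNA library […] in HEPES–potassium acetate buffer at 33 °C for 0–8 or 0–960 min, with or without 500 nM GTSF1 partner protein. Uncleaved targets were then sequenced and normalised to depth and to weakly complementary targets. Three trials were pooled, and k3 was capped at 0.0001 min^-1. A burst-and-steady-state fit was applied to obtain the pre-steady-state cleavage rate.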

[2] = tested on: MIWI (PIWIL1) piRISC loaded with L1MC piRNA (30 nt); assay: as above; settings: guide: L1MC piRNA 5'p-UAACUAAAUACUAUGCAAGCUGUAGGUCCU
Procedure, shortened: as §1

[3] = auxiliary factor: 500 nM mouse GTSF1
[4] = auxiliary factor: none (no GTSF1)
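Note: 1 nM active piRISC with 0.1 nM target library at 33 °C single turnover.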

| Sequence | pre-steady-state target cleavage rate [1, 3] | pre-steady-state target cleavage rate [1, 4] | pre-steady-state target cleavage rate [2, 4] | pre-steady-state target cleavage rate [2, 3] |
| --- | --- | --- | --- | --- |
| UCCUCCUACAGCUUGCUAUGUAUUUAGUAA | 0.021 ± 0.0069 | 0.00151 ± 0.0034 | 0.00151 ± 0.0032 |  |
| UCCUGGAUGUCCUUCGAUAGUAUUUAGUUA | 0.00794 ± 0.0037 | 0.000989 ± 0.0052 | 0.0009 ± 0.005 |  |
| UCCUGGAUGUCGAUGCUAGUAUUUAGUUA | 0.000871 ± 0.0073 | 0.000642 ± 0.0079 | 0.000763 ± 0.0056 |  |
| UCCUGGAUGUCCUUGCUAGUAUUUAGUUA | 0.00201 ± 0.0052 | 0.000762 ± 0.0067 | 0.00105 ± 0.0052 | 0.00298 ± 0.0047 |
| UCCUGGAUGUCGAACAAUAGUAUUUAGUUA | 0.00019 ± 0.013 | < 0.0001 | 0.000158 ± 0.012 |  |
| UCCUGGAUGUGCUUGCUAUCAUAAAUCAAA [g15:g20:cont:t1A] | 0.000461 ± 0.019 | 0.000352 ± 0.014 | 0.000765 ± 0.0089 | 0.000879 ± 0.012 |
| UCCUGGAUGUCGAUGCAUAGUAUUUAUGUUA | 0.106 ± 0.022 | 0.00134 ± 0.0053 | 0.000433 ± 0.017 | 0.00358 ± 0.0038 |
| UCCUGGAUGUCGUUGCAUAGUAUUUGUUA | 0.00365 ± 0.0039 | 0.00068 ± 0.0076 | 0.000658 ± 0.009 |  |
| UCCUCCUACAGCUUGCUAUGUAUUUAGAAA | 0.00902 ± 0.0042 | 0.000805 ± 0.0069 | 0.000664 ± 0.0076 |  |
| UCCUGGAUGUGCUUGCAUAGUAUUUAGAUA | 0.0576 ± 0.014 | 0.0014 ± 0.0044 | 0.0188 ± 0.0067 | 0.118 ± 0.023 |
| UCCUCCUACAGCUUGCUUAGUAUUUACAAA | 0.0922 ± 0.021 | 0.00136 ± 0.0034 | 0.00156 ± 0.0039 |  |
| UCCUCCUUCAGCUAGCAUAGUAUUUAGUUA | 0.228 ± 0.017 | 0.00519 ± 0.0022 | 0.0147 ± 0.0034 | 0.78 ± 0.032 |
| UCCUCCUACAGCUUCCAUAGUAUUUACUUA | 0.0137 ± 0.0064 | 0.000176 ± 0.015 | 0.00107 ± 0.0062 |  |
| UCCUGGAUGUCGAAGCAUAGUUUUUAGUAA | 0.00175 ± 0.0061 | 0.000732 ± 0.006 | 0.000221 ± 0.013 | 0.00029 ± 0.033 |
| UCCUGGAUGUCGAACGUUAUUAUUUAGUUA | 0.000121 ± 0.047 | 0.000256 ± 0.014 | 0.000257 ± 0.017 |  |
| UCCUGGAUGUCCUUCCAUAGUUUUUAGUUA | 0.00229 ± 0.0061 | 0.000396 ± 0.015 |  | 0.00298 ± 0.0051 |
| UCCUGCAACAGCUUCCAUAGUAUUUAGUUA | 0.112 ± 0.03 | 0.00138 ± 0.0053 | 0.00266 ± 0.0028 | 0.0524 ± 0.015 |
| UCCUGGAUGUCGAACCCUAGUAUUUAGUUA | 0.00179 ± 0.0048 | 0.00223 ± 0.0032 | 0.000735 ± 0.0084 |  |
| UCCUGGAUGUGCUUGCACUAGUAUUUAGUUA | 0.00384 ± 0.0046 | 0.00137 ± 0.0039 | 0.0012 ± 0.0071 | 0.00266 ± 0.0046 |
| UCCUCCUACAGCUUGCAUAGUAUAAUGAAA | 0.0878 ± 0.019 | 0.000907 ± 0.0054 | 0.00134 ± 0.0044 |  |
| UCCUGGAACAGCUUGCAUAGUAAUUUCAAA | 0.0786 ± 0.026 | 0.00107 ± 0.0074 | 0.00118 ± 0.0061 |  |

Single values from the entries so far.
Value of UCCUCCUACAGCUUGCUUAGUAUUUACAAA under pre-steady-state target cleavage rate [1, 4]: 0.00136 ± 0.0034
Value of UCCUGCAACAGCUUCCAUAGUAUUUAGUUA under pre-steady-state target cleavage rate [1, 4]: 0.00138 ± 0.0053
Value of UCCUGGAUGUGCUUGCAUAGUAUUUAGAUA under pre-steady-state target cleavage rate [2, 3]: 0.118 ± 0.023
Value of UCCUCCUUCAGCUAGCAUAGUAUUUAGUUA under pre-steady-state target cleavage rate [1, 3]: 0.228 ± 0.017

Carrying on:

| Sequence | pre-steady-state target cleavage rate [1, 3] | pre-steady-state target cleavage rate [1, 4] | pre-steady-state target cleavage rate [2, 4] | pre-steady-state target cleavage rate [2, 3] |
| --- | --- | --- | --- | --- |
| UCCUGGAUGUGGUUGCAUAGUAUUUAGAUA | 0.0485 ± 0.021 | 0.000898 ± 0.011 | 0.00115 ± 0.0078 |  |
| UCCUGGAUGUCGAUGCAUAGUUUUUACUUA | 0.000541 ± 0.014 | 0.000323 ± 0.017 |  | 0.000333 ± 0.018 |
| UCCUGGAUGUCGUAGGAUAGUAUUUAGUUA | 0.00186 ± 0.0041 | 0.000219 ± 0.024 |  | 0.000121 ± 0.054 |
| UCCUGGAUGUCGUUGCAUAGUAUUUUCUUA | 0.00558 ± 0.0035 | 0.000559 ± 0.011 | 0.000334 ± 0.009 | 0.00163 ± 0.0053 |
| UCCUGGAUGUCGAACGUUGGUAUUUAGUUA | 0.000217 ± 0.038 | 0.000374 ± 0.013 | 0.000266 ± 0.018 |  |
| UCCUGGAUGUCGAAGCAUAGUUAUUUAGUUA | 0.00318 ± 0.0043 | 0.00199 ± 0.0032 | 0.00101 ± 0.0069 | 0.000468 ± 0.019 |
| UCCUGCAACAGCUUGCUUAGUAUUUAGUUA | 0.293 ± 0.016 | 0.00661 ± 0.0026 |  | 1.4 ± 0.097 |
| UCCUGGAUGUGGAAGCAUAGUAUUUAGUUA | 0.026 ± 0.0048 | 0.00344 ± 0.0029 | 0.00052 ± 0.0067 |  |
| UCCUGGAUGUCGAAGCAUAGUAAAUAGUUA | 0.00319 ± 0.0038 | 0.00132 ± 0.0047 | 0.000857 ± 0.0078 |  |
| UCCUGGAUGUGCUUGCAUAGAUUUUAGUUA | 0.00729 ± 0.0044 | 0.00375 ± 0.0024 | 0.00135 ± 0.0054 | 0.00264 ± 0.0055 |
| UCCUGGAUGUCGAAGCUUAGUAUUUAGUUA | 0.00685 ± 0.0029 | 0.0015 ± 0.0041 | 0.000744 ± 0.01 | 0.000504 ± 0.014 |
| UCCUGGAUGUCGAACGUAUGUUUUUAGUUA | 0.000369 ± 0.021 | 0.000191 ± 0.024 | 0.000278 ± 0.017 | 0.000364 ± 0.015 |
| UCCUGGAUGUGCUUGCAUCAGUAUUUAGUUA | 0.00297 ± 0.0044 | 0.00089 ± 0.0093 | 0.000887 ± 0.013 | 0.00212 ± 0.0054 |
| UCCUGGAUGUGCUUCCAUAGUUUUUAGUUA | 0.00233 ± 0.0057 | 0.000573 ± 0.012 | 0.000511 ± 0.015 | 0.00272 ± 0.0053 |
| UCCUGGAUCAGCUUGCAAUGUAUUUUCAAA |  | 0.000559 ± 0.0075 | 0.000888 ± 0.0062 |  |
| UCCUGGAUGUCGUUCAUAGUAUUUAGUUA |  | 0.00207 ± 0.0026 | 0.000819 ± 0.0082 |  |
| UCCUGGAUGUCGAACGUAUCUUUUUUGUUA | 0.000148 ± 0.04 | 0.000173 ± 0.027 | 0.000129 ± 0.032 | 0.000175 ± 0.028 |
| UCCUGGAUGUCGAACGAUAGUUUUAAGUUA |  | < 0.0001 | 0.000109 ± 0.056 |  |
| UCCUGGAUGUCGAACGUAAGUUUUUAGUUA |  | 0.000183 ± 0.022 |  | 0.000272 ± 0.019 |
| UCCUGGAUGUCGAACCAUAGUAUUUAAGUUA | 0.000681 ± 0.0093 | 0.000171 ± 0.024 | 0.000265 ± 0.019 | 0.000529 ± 0.011 |
| UCCUGGAUGUCGUUGCAUAGUAUUUACAAA | 0.00221 ± 0.005 | 0.000623 ± 0.01 | 0.000629 ± 0.0097 | 0.000388 ± 0.017 |
